# Laboratory results as given in article PMC9705430.
# The chains behind the UniProt entries cited, without tags or fusion partners.
# UniProt P97822: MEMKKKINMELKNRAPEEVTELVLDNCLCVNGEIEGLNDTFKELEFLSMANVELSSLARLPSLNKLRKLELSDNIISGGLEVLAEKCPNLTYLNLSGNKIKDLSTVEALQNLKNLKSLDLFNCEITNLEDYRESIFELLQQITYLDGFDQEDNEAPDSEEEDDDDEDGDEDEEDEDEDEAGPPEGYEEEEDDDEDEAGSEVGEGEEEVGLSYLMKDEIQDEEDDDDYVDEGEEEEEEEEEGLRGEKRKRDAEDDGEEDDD
# UniProt Q9WTM5: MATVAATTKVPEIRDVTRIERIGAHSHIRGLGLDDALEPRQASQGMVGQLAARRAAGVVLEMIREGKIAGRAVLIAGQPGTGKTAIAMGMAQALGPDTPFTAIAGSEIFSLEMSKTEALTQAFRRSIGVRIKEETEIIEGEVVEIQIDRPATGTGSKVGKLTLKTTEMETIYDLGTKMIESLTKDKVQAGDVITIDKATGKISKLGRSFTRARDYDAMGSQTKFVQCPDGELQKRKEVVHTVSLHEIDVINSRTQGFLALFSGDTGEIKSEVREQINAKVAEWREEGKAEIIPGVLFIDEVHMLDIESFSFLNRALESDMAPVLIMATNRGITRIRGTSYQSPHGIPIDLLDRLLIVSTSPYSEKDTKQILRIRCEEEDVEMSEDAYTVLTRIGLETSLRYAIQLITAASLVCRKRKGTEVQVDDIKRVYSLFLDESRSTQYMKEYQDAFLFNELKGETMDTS
# UniProt A2AQH4: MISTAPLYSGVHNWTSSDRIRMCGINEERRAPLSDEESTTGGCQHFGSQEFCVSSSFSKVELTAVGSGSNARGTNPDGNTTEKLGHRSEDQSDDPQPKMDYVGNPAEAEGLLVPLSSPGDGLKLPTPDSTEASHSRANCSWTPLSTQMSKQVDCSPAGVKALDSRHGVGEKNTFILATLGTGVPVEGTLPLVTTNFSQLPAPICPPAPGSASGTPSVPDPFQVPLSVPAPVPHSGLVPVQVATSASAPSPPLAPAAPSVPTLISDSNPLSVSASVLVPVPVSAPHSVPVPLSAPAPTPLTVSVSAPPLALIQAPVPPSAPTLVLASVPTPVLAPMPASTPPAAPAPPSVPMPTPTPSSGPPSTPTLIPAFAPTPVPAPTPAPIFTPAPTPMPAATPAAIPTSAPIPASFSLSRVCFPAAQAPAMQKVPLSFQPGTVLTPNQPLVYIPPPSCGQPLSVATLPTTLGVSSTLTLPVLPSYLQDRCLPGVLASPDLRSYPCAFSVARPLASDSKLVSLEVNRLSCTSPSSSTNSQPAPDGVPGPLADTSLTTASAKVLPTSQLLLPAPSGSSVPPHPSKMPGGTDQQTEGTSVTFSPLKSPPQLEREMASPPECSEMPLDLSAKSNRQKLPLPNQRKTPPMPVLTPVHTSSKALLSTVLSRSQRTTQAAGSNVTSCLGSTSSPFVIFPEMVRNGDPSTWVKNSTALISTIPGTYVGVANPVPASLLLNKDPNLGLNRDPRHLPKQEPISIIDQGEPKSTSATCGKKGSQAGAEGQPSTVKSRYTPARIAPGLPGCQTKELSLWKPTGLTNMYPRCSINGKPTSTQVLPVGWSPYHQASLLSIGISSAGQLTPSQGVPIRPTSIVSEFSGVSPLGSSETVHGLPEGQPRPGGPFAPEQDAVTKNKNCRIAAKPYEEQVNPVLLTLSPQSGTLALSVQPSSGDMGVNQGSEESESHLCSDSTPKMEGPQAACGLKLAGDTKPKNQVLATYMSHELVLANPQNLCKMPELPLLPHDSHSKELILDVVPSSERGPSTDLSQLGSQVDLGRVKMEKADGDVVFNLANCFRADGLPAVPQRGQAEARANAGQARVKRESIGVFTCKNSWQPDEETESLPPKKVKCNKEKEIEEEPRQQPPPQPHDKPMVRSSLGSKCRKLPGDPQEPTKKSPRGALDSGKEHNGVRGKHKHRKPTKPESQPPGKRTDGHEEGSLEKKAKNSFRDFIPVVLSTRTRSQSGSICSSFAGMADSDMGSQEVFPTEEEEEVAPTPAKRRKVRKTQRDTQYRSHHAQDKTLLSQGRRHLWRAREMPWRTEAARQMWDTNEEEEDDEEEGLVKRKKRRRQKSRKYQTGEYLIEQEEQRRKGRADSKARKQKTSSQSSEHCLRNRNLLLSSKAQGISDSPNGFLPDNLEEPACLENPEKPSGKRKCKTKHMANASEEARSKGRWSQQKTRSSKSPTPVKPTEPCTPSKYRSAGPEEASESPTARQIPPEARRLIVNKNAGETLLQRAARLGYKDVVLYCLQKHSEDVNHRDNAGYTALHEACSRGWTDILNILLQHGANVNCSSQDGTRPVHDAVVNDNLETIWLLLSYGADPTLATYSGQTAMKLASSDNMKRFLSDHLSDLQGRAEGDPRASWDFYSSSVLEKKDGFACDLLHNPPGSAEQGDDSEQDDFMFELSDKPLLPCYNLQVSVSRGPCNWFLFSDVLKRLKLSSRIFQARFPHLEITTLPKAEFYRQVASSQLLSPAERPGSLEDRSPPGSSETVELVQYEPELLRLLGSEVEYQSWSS
# UniProt O35730: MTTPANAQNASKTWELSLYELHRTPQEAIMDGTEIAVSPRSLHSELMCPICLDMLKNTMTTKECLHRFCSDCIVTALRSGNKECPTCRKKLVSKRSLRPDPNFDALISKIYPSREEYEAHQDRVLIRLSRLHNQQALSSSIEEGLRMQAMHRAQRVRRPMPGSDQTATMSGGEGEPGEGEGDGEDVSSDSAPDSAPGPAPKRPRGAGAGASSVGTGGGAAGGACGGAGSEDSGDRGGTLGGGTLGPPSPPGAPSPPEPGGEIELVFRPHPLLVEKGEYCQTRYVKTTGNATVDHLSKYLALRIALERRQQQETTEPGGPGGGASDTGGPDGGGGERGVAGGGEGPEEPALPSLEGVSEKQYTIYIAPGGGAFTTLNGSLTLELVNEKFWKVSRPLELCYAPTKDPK
# T1: 3xFLAG-tagged PCGF1 (UniProt Q8R023)
# T1 sequence: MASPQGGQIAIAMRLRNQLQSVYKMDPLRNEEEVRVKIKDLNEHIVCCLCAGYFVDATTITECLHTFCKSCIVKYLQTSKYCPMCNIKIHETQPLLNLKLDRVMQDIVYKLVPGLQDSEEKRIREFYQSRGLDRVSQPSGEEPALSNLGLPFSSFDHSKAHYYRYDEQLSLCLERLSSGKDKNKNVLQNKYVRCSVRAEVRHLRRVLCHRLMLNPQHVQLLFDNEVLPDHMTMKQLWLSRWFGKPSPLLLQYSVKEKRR
# Target: T1, 3xFLAG-tagged PCGF1
# Test: affinity purification with mass spectrometry; pull-down of exogenous 3xFLAG-PCGF1 expressed in Pcgf1-KO IdHPCs, followed by mass spectrometry (IP-MS); mock immunoprecipitation as negative control; two independent experiments
row,Molecule,binding
1,ANP32E (from UniProt P97822 1-260),binds
2,RUVBL2 (from UniProt Q9WTM5 1-463),binds
3,BCORL1 (from UniProt A2AQH4 1-1781),binds
4,RING1A (from UniProt O35730 1-406),binds

# Target: T1, 3xFLAG-tagged PCGF1
# Test: as above
# Remark: another data set of the same source
row,Molecule,binding
1,"RYBP (protein, UniProt Q8CCI5 1-228) MTMGDKKSPTRPKRQAKPAADEGFWDCSVCTFRNSAEAFKCSICDVRKGTSTRKPRINSQLVAQQVAQQYATPPPPKKEKKEKVEKPDKEKPEKDKDISPSVTKKNTNKKTKPKSDILKDPPSEANSIQSANATTKTSETNHTSRPRLKNVDRSTAQQLAVTVGNVTVIITDFKEKTRSSSTSSSTVTSSAGSEQQNQSSSGSESTDKGSSRSSTPKGDMSAVNDESF",binds
2,"KDM2B (lysine demethylase 2B) (protein, UniProt Q6P1G2 1-1309) MEAEKDSGRRLRAIDRQRYDENEDLSDVEEIVSVRGFSLEEKLRSQLYQGDFVHAMEGKDFNYEYVQREALRVPLVFRDKDGLGIKMPDPDFTVRDVKLLVGSRRLVDVMDVNTQKGTEMSMSQFVRYYETPEAQRDKLYNVISLEFSHTKLEHLVKRPTVVDLVDWVDNMWPQHLKEKQTEATNALAEMKYPKVKKYCLMSVKGCFTDFHIDFGGTSVWYHVFRGGKIFWLIPPTLHNLALYEEWVLSGKQSDIFLGDRVERCQRIELKQGYTFFIPSGWIHAVYTPVDSLVFGGNILHSFNVPMQLRIYEIEDRTRVQPKFRYPFYYEMCWYVLERYVYCVTQRSYLTQEYQRELMLIDAPRKTSVDGFSSDSWLDMEEESCEQQPQEEEEEEEDKEEEGDGADKTPKPPTDDPTSPTSTPPEDQDSTGKKPKAPAIRFLKRTLSNESEESVKSTSMPTDDPKTPTGSPATEVSTKWTHLTEFELKGLKALVEKLESLPENKKCVPEGIEDPQALLEGVKNVLKEHVDDDPTLAITGVPVVSWPKKTAKNRVVGRPKGKLGPASAVKLAANRTTAGARRRRTRCRKCEACLRTECGECHFCKDMKKFGGPGRMKQSCIMRQCIAPVLPHTAVCLVCGEAGKEDTVEEEEGKFNLMLMECSICNEIIHPGCLKIKESEGVVNDELPNCWECPKCNHAGKTGKQKRGPGFKYASNLPGSLLKEQKMNRDNKEGQEPAKRRSECEEAPRRRSDEHPKKVPADGILRRKSDDVHLRRKRKYEKPQELSGRKRASSLQTSPGSSSHLSPRPPLGSSLSPWWRSSLTYFQQQLKPGKEDKLFRKKRRSWKNAEDRLSLANKPLRRFKQEPEDDLPEAPPKTRESDQSRSSSPTAGPSTEGAEGPEEKKKVKMRRKRRLVNKELSKELSKELNHEIQKTESTLAHESQQPIKSEPESENDEPKRPLSHCERPHRFSKGLNGTPRELRHSLGPGLRSPPRVMSRPPPSASPPKCIQMERHVIRPPPISPPPDSLPLDDGAAHVMHREVWMAVFSYLSHRDLCVCMRVCRTWNRWCCDKRLWTRIDLNRCKSITPLMLSGIIRRQPVSLDLSWTNISKKQLSWLINRLPGLRDLVLSGCSWIAVSALCSSSCPLLRTLDVQWVEGLKDAQMRDLLSPPTDNRPGQMDNRSKLRNIVELRLAGLDITDVSLRLIIRHMPLLSKLQLSYCNHINDQSINLLTAVGTTTRDSLTEVNLSDCNKVTDLCLSFFKRCGNICHIDLRYCKQVTKEGCEQFIAEMSVSVQFGQVEEKLLQKLS",binds

# These are yes or no findings as the source states them, for the method shown. In cells and extracts the contact can be indirect. These calls come from enrichment with a bait or labelling near it, and not all partners need be listed. Sequences can lack the tags named with a protein.
